Measured values published in doi:10.1101/2024.10.30.620894 (bioRxiv, 2024).
No constants are given. Whether binding was seen depends on the method and setting. Binding calls can cover weak binding; strength is not graded here.

Assays:
[1] = target: VLDLR(28-797)Δ(751-779)-C-tag (VLDLR ectodomain, VLDLR-ed) (human) (UniProt P98155); experiment: pull-down
[2] = target: VLDLR(28-797)Δ(751-779)-C-tag (VLDLR ectodomain, VLDLR-ed) (human) (UniProt P98155); experiment: ELISA

B1: wild-type clusterin (WT-Clu) (natural protein, human)
chain 1: DQTVSDNELQEMSNQGSKYVNKEIQNAVNGVKQIKTLIEKTNEERKTLLSNLEEAKKKKEDALNETRESETKLKELPGVCNETMMALWEECKPCLKQTCMKFYARVCRSGSGLVGRQLEEFLNQSSPFYFWMNGDRIDSLLENDRQQTHMLDVMQDHFSRASSIIDELFQDRFFTREPQDTYHYLPFSLPHRRPHFFFPKSRIVR
chain 2: SLMPFSPYEPLNFHAMFQPFLEMIHEAQQAMDIHFHSPAFQHPPTEFIREGDDDRTVCREIRHNSTGCLRMKDQCDKCREILSVDCSTNNPSQAKLRRELDESLQVAERLTRKYNELLKSYQWKMLNTSSLLEQLNEQFNWVSRLANLTQGEDQYYLRVTTVASHTSDSDVPSGVTEVVVKLFDSDPITVTVPVEVSRKNPKFMETVAEKALQEYRKKHREE
modifications: N-glycans (six in the whole protein) | N-glycans (six in the whole protein)
binding [1]: binds
binding [2]: binds
